Laboratory results published in paper PMC8897952.
Results are given in words; binding and its absence hold for the method and conditions named. In cells and extracts the contact can be indirect. Some results given as binding are weak or reduced against the parent protein; the word gives no strength.

Protein sequences, listed by entry. Tags and fused reporters are not part of them.
UniProt P41229: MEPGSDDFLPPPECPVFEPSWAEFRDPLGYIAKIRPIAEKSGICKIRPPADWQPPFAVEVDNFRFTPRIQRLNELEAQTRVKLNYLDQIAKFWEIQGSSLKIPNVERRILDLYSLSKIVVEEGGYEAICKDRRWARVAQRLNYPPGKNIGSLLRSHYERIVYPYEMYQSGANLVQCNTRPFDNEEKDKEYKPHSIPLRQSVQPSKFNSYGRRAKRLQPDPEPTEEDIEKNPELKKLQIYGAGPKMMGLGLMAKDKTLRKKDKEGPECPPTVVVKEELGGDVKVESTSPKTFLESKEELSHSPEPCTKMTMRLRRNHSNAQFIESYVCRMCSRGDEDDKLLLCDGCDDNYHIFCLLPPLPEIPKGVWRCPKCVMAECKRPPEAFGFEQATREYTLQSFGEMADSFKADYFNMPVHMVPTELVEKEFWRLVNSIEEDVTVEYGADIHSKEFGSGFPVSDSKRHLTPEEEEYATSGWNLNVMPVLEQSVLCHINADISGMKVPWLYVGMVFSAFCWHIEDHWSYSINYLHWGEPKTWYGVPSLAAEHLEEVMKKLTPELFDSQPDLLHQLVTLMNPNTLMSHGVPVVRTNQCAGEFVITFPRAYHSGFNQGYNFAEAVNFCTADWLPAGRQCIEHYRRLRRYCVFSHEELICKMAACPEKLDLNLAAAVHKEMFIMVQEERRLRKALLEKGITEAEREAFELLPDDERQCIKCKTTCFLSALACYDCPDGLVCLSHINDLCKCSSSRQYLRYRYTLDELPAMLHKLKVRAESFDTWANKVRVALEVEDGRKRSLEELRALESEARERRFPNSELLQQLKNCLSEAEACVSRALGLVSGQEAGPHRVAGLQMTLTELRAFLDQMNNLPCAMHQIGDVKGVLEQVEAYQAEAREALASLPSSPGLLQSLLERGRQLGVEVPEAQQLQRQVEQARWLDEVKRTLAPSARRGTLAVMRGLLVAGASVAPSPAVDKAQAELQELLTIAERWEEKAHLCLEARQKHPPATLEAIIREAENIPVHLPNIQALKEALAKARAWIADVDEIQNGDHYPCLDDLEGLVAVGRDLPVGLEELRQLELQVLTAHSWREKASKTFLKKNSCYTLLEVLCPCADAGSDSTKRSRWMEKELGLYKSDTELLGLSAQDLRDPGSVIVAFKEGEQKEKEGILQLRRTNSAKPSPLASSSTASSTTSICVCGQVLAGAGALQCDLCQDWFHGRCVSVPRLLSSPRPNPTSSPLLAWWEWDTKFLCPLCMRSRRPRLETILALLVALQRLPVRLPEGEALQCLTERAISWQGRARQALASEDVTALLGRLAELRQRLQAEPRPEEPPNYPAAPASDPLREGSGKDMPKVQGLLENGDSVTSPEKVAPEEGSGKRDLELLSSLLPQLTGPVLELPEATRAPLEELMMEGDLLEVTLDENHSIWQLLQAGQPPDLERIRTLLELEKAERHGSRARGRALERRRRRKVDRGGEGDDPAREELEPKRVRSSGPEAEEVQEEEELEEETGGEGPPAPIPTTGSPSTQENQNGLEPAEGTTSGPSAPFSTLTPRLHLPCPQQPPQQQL
UniProt O75461: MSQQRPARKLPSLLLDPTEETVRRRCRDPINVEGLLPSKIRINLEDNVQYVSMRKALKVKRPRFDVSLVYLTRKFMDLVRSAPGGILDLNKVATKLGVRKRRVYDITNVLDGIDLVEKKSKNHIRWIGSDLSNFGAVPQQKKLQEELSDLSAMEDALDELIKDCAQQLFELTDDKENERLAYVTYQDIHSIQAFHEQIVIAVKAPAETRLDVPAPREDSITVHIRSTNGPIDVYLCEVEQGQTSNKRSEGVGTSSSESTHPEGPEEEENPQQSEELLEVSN

Molecular target: Lysine-specific demethylase 5C (KDM5C) (UniProt P41229)
Assay: co-IP; cell lysates after KDM5C overexpression, precipitated overnight at 4 °C with the indicated antibody and protein A-agarose, washed five times with immunoprecipitation-HAT buffer, Western blot

binding: binds
Substance: Transcription factor E2F6 (from UniProt O75461 1-281)
